Compounds and concentrations:
darinaparsin (2 µM): C[As](C)SC[C@H](NC(=O)CC[C@H](N)C(=O)O)C(=O)NCC(=O)O
U73122 (2 µM): COc1ccc2c(c1)CCC1C2CCC2(C)C(NCCCCCCN3C(=O)C=CC3=O)CCC12 (configuration not stated)
decitabine (0.5 µM): Nc1ncn([C@H]2C[C@H](O)[C@@H](CO)O2)c(=O)n1
dorsomorphin (2 µM): c1cc(-c2cnn3cc(-c4ccc(OCCN5CCCCC5)cc4)cnc23)ccn1

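The test systems are human melanoma cell lines, treated with two drugs together for 72 h and then stained and imaged. Values are the share of nuclei positive for cleaved PARP as a percentage of the same share in the DMSO control: 100 is the control level, higher means more apoptosis. Concentrations were fixed for each drug; these are the higher of two levels. These are primary screening values without error estimates. Basal and induced levels differ widely between cell lines.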
This is part of the screen, not chosen by result.
An entry leaves out what has no value listed here.
A dash means that no value is listed here.

Cell line,dorsomorphin and U73122,dorsomorphin and decitabine,darinaparsin and U73122,U73122 and decitabine,darinaparsin and dorsomorphin
WM115,141,158,33.7,156,94.6
MEL-HO,44.2,54.0,88.8,228,305
WM3619,209,107,95.3,134,154
COLO 792,101,111,58.9,172,201
A2058,133,318,122,329,182
IPC-298,77.0,76.4,104,62.5,46.7
WM3526,119,206,126,92.4,224
SK-MEL-28,171,37.1,158,89.0,143
SK-MEL-30,128,120,55.6,165,116
UACC-62,158,132,40.4,315,396
A101D,127,25.9,28.0,63.0,164
A375,155,216,33.0,104,203
SK-MEL-2,146,63.5,102,105,135
COLO 829,67.6,115,101,129,94.3
WM1716,62.1,64.8,2810,135,35.4
LB2518-MEL,61.1,72.7,45.8,117,220
MZ2-MEL,73.0,147,89.2,86.5,85.9
COLO 800,108,85.7,45.3,102,106
IST-MEL1,92.3,115,237,67.4,139
RPMI-7951,67.3,104,40.2,201,114
SK-MEL-5,43.5,376,127,159,1010
LOX IMVI,89.5,81.8,94.2,160,200
MeWo,128,150,76.7,186,85.8
501mel,108,127,284,85.2,200
WM1745,195,-,103,-,260
RVH-421,60.8,108,91.5,39.6,84.7
WM451Lu,241,512,42.1,190,1140
G-361,227,261,140,61.6,234
UACC-257,55.7,108,76.7,84.8,80.6
C32,230,239,94.8,200,155

3 of the entries, repeated:

* A375 | dorsomorphin and U73122: 155; dorsomorphin and decitabine: 216; darinaparsin and U73122: 33.0; U73122 and decitabine: 104; darinaparsin and dorsomorphin: 203
* COLO 800 | dorsomorphin and U73122: 108; dorsomorphin and decitabine: 85.7; darinaparsin and U73122: 45.3; U73122 and decitabine: 102; darinaparsin and dorsomorphin: 106
* UACC-62 | dorsomorphin and U73122: 158; dorsomorphin and decitabine: 132; darinaparsin and U73122: 40.4; U73122 and decitabine: 315; darinaparsin and dorsomorphin: 396

Values as published with doi:10.1371/journal.pone.0140310, rounded.